In patent US20170008959A1:
No constants are given. Whether binding was seen depends on the method and setting. Some binding calls cover weakened binding; strength is not graded here.

Protein sequences, listed by entry. Tags and fused reporters are not part of them. Residues count along the entry.
UniProt P05067, residues 672-713: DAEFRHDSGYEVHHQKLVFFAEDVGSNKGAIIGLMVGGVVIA

Biological target: Amyloid Aβ-1-42 oligomer (globulomer), biotinylated (UniProt P05067)
Experiment: HTRF competition: peptide preincubated with Aβ 1/5 biotin globulomer 800 nM, then sRAGE 1-331 added; blocked partner sRAGE

binding: binds
Binder: LPRHRALRTAPIQPRVWEPVPLEEVQLVVE [AGER-CDP peptide 7]
